Measurements taken from the RNAGym collection of RNA variant scans (doi:10.1126/science.aae0568).
Variants at the background level are over-represented here.

B1: tRNA (parent)
chain: GUUCCGUUGGCGUAAUGGUAACGCGUCUCCCUCCUAAGGAGAAGACUGCGGGUUCGAGUCCCGUACGGAACG

Variants of: B1
Assay: yeast fitness relative to wild type (ratio to wild type); higher = fitter; tRNA-Arg(CCU), competitive growth, 37 C, YPD
In short: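 A pool of Saccharomyces cerevisiae strains, each with a tRNA-Arg(CCU) gene variant at the native genomic locus, was competed in YPD at 37°C for 24 hours across six parallel replicates. The variants had been chemically synthesised at a 3% per-site mutation rate over 69 sites, and gene amplicons before and after competition were read by 100-nucleotide paired-end sequencing. Darwinian fitness relative to wild type rested on changes in genotype frequencies. Genotypes required ≥ 100 starting reads, and estimates < 0.5 were set to 0.5.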

| Variant | yeast fitness |
| --- | --- |
| A20U C34G A42C | ≤ 0.5 |
| A20U C61U A65U | ≤ 0.5 |
| A20U G25A C49G | 0.619 |
| A20U G25C G39A G48C A70U | ≤ 0.5 |
| A20U U28C G44A C46U G48A | ≤ 0.5 |
| A20U U32C A43G | 0.659 |
| A20U U32G U54A | ≤ 0.5 |
| A21C A42U G52A C60A A69G | ≤ 0.5 |
| A21C C22A C60U | ≤ 0.5 |
| A21C C24A G50C | ≤ 0.5 |
| A21C C24G C62G | ≤ 0.5 |
| A21C C24G U32A A42C | ≤ 0.5 |
| A21C C24G U32A A42C C66A | ≤ 0.5 |
| A21C C24U C55A A57U | ≤ 0.5 |
| A21C C27A U28A A45G A69C | ≤ 0.5 |
| A21C C27U C49G U64C | ≤ 0.5 |
| A21C C27U C49U G58C C61A A65U | ≤ 0.5 |
| A21C C27U G51A U59C | ≤ 0.5 |
| A21C C30G G68C | ≤ 0.5 |
| A21C C31U G38A G39C A57G | ≤ 0.5 |
| A21C C33G A43C A57U | ≤ 0.5 |
| A21C C34U | 0.536 |
| A21C C46G C49G C62U | ≤ 0.5 |
| A21C C61U A70U | 0.623 |

| Variant | yeast fitness |
| --- | --- |
| A21C C62G G68C | ≤ 0.5 |
| A21C G23C C30U G52C A65C | ≤ 0.5 |
| A21C G23C C62A | ≤ 0.5 |
| A21C G25C A57G A69U | ≤ 0.5 |
| A21C G25C C27G | ≤ 0.5 |
| A21C G25C U26A U59A A70C | ≤ 0.5 |
| A21C G25C U26G C60G A65G | ≤ 0.5 |
| A21C G25C U26G C62A | ≤ 0.5 |
| A21C G25C U26G G48A G58C | ≤ 0.5 |
| A21C G41C A70C | ≤ 0.5 |
| A21C G44C G50A A57G G68C | ≤ 0.5 |
| A21C G51C A69U | ≤ 0.5 |
| A21G A36G G38C | ≤ 0.5 |
| A21G A42G U54A | ≤ 0.5 |
| A21G A43U C49U U53C C61G | ≤ 0.5 |
| A21G A45G C46G A70U | ≤ 0.5 |
| A21G A57C | 0.709 |
| A21G C22A C49A G56C | ≤ 0.5 |
| A21G C22U A45U C49U U64A | ≤ 0.5 |
| A21G C22U C30G G51A A69U | 0.551 |
| A21G C24A G39A C66U | ≤ 0.5 |
| A21G C24U A42U G52A | ≤ 0.5 |
| A21G C27A | 0.757 |
| A21G C27U A70G | 0.792 |

| Variant | yeast fitness |
| --- | --- |
| A21G C29G G58C A70C | ≤ 0.5 |
| A21G C29U A36U A43U | ≤ 0.5 |
| A21G C33G G38A A69C | ≤ 0.5 |
| A21G C49U U53C C61G | ≤ 0.5 |
| A21G C55A | 0.641 |
| A21G C61A G67A | 0.532 |
| A21G C62U G63C A70C | ≤ 0.5 |
| A21G G23C C27U G51C C55A C66U | ≤ 0.5 |
| A21G G48C | 1.01 |
| A21G G50C G52C | ≤ 0.5 |
| A21G G58C U59C G63A | 0.701 |
| A21G G67U A70U | 0.607 |
| A21G U26C A40U C49U | ≤ 0.5 |
| A21G U28A C33A A36C | ≤ 0.5 |
| A21G U47C C49U | 0.773 |
| A21U A37G C62U | ≤ 0.5 |
| A21U A37U | 0.672 |
| A21U A37U C60G | 0.608 |
| A21U A42C U47G G63A A69U | ≤ 0.5 |
| A21U A42G C49U | ≤ 0.5 |
| A21U A45U G50C U64G | ≤ 0.5 |
| A21U C22G C33U G50A | ≤ 0.5 |
| A21U C22U C30G U59G A65U | ≤ 0.5 |
| A21U C22U U32A G39A G63A | ≤ 0.5 |

| Variant | yeast fitness |
| --- | --- |
| A21U C24A C46U C62A | ≤ 0.5 |
| A21U C24G C49A U54G | 0.56 |
| A21U C27G | ≤ 0.5 |
| A21U C27G C29U U32C | ≤ 0.5 |
| A21U C27G C30G G68A | ≤ 0.5 |
| A21U C27G U32C | ≤ 0.5 |
| A21U C29G C49G G56A A70U | ≤ 0.5 |
| A21U C29G G63A | 0.618 |
| A21U C30A A42G G67A | ≤ 0.5 |
| A21U C30A C34G | ≤ 0.5 |
| A21U C30G U32C U53A A57G | ≤ 0.5 |
| A21U C30G U32C U64C | ≤ 0.5 |
| A21U C31A G39C | ≤ 0.5 |
| A21U C31G C33G G67A | ≤ 0.5 |
| A21U C31U G41A A42C U54G | ≤ 0.5 |
| A21U C31U G52A C55A | ≤ 0.5 |
| A21U C33A C34U A36C G48C | ≤ 0.5 |
| A21U C33G A42G G44A | 0.541 |
| A21U C34A G50C G67A | ≤ 0.5 |
| A21U C34G A69U | ≤ 0.5 |
| A21U C34U C49U A65U | ≤ 0.5 |
| A21U C46G U54C | ≤ 0.5 |
| A21U C49G C62U | ≤ 0.5 |
| A21U C55A A65C | ≤ 0.5 |

| Variant | yeast fitness |
| --- | --- |
| A21U G25A U54A C62G C66U A70C | ≤ 0.5 |
| A21U G56C G63A U64C G67C | ≤ 0.5 |
| A21U G67C | 0.645 |
| A21U G68C | 0.687 |
| A21U U28A A40U C55A | ≤ 0.5 |
| A21U U32A C55G | ≤ 0.5 |
| A21U U32C A43U U59A | ≤ 0.5 |
| A21U U32G G48C C49U C62G G68C | ≤ 0.5 |
| A21U U35A C61U | ≤ 0.5 |
| C22A A65G C66G G68C | ≤ 0.5 |
| C22A A70U | 1.01 |
| C22A C24A A43U | ≤ 0.5 |
| C22A C24G A36G G39C C55U | ≤ 0.5 |
| C22A C24U C30U C31G C49G | ≤ 0.5 |
| C22A C27U A43G C46G | ≤ 0.5 |
| C22A C27U C30G A45U | ≤ 0.5 |
| C22A C29A | 0.636 |
| C22A C29U A70C | ≤ 0.5 |
| C22A C30U A37C A43U | ≤ 0.5 |
| C22A C30U A69C | ≤ 0.5 |
| C22A C30U G67C | ≤ 0.5 |
| C22A C33G A43C G56C A69U | ≤ 0.5 |
| C22A C34A A70G | ≤ 0.5 |
| C22A G25A | 0.992 |

| Variant | yeast fitness |
| --- | --- |
| C22A G41A G44C C49U | ≤ 0.5 |
| C22A G41C C66U A70C | ≤ 0.5 |
| C22A G48A C55A G58C | ≤ 0.5 |
| C22A U32C C66U | 0.503 |
| C22A U47G C55A | ≤ 0.5 |
| C22A U53A G67C | ≤ 0.5 |
| C22G A36G A37G C60G A69G | ≤ 0.5 |
| C22G A37C A45U G52A G67A | ≤ 0.5 |
| C22G A37G C60A | ≤ 0.5 |
| C22G A40U A43U | 0.503 |
| C22G A43C C46A C61G A70C | ≤ 0.5 |
| C22G A45C C46A G48A U64C | ≤ 0.5 |
| C22G A45C G50C | ≤ 0.5 |
| C22G A45C U47G U59A | ≤ 0.5 |
| C22G A45U G48C C55U A57C G67U | ≤ 0.5 |
| C22G C24G C27G C60G | ≤ 0.5 |
| C22G C24U C29U A42U | ≤ 0.5 |
| C22G C24U G39A | ≤ 0.5 |
| C22G C27G C31G C49U C61G A69U | 0.534 |
| C22G C27G U54C C66U | ≤ 0.5 |
| C22G C27U U59A G63A A70U | ≤ 0.5 |
| C22G C29A A42C C66U | ≤ 0.5 |
| C22G C29G G44C G56A A57G A70U | ≤ 0.5 |
| C22G C30U C62G | ≤ 0.5 |

| Variant | yeast fitness |
| --- | --- |
| C22G C31G U59C | ≤ 0.5 |
| C22G C31U A40C C49G C60G | ≤ 0.5 |
| C22G C31U U53A | ≤ 0.5 |
| C22G C33G G51A C55G | ≤ 0.5 |
| C22G C34A A36U C49U C62U G67A | ≤ 0.5 |
| C22G C34G C61G A69G | ≤ 0.5 |
| C22G C49G C62U | ≤ 0.5 |
| C22G C55A A65U | ≤ 0.5 |
| C22G C61U G63C | ≤ 0.5 |
| C22G G23U C62U G68A | ≤ 0.5 |
| C22G G25C A36C A42G G52A | ≤ 0.5 |
| C22G G25C C61G | 0.659 |
| C22G G38A C55A | ≤ 0.5 |
| C22G G41A A57C | ≤ 0.5 |
| C22G G41A G48C G68C | ≤ 0.5 |
| C22G G51C C66U | ≤ 0.5 |
| C22G U28A C31G C55A | ≤ 0.5 |
| C22G U28A C31G G51C | ≤ 0.5 |
| C22U A36C A37G A65G | ≤ 0.5 |
| C22U A36G C61A C66U | ≤ 0.5 |
| C22U A37C | 0.593 |
| C22U A37G A43C C55G G68A | ≤ 0.5 |
| C22U A40C C62G | ≤ 0.5 |
